Here are results for 1 molecule from publication PMC10478442.

Results are given in words; binding and its absence hold for the method and conditions named. In cells and extracts the contact can be indirect. Some binding calls cover weakened binding; strength is not graded here. Sequences can lack the tags named with a protein.

In this test the target is T1, ERCC Exception Repair 6 Like (ERCC6L), DDK-tagged (UniProt Q2NKX8).
T1 sequence: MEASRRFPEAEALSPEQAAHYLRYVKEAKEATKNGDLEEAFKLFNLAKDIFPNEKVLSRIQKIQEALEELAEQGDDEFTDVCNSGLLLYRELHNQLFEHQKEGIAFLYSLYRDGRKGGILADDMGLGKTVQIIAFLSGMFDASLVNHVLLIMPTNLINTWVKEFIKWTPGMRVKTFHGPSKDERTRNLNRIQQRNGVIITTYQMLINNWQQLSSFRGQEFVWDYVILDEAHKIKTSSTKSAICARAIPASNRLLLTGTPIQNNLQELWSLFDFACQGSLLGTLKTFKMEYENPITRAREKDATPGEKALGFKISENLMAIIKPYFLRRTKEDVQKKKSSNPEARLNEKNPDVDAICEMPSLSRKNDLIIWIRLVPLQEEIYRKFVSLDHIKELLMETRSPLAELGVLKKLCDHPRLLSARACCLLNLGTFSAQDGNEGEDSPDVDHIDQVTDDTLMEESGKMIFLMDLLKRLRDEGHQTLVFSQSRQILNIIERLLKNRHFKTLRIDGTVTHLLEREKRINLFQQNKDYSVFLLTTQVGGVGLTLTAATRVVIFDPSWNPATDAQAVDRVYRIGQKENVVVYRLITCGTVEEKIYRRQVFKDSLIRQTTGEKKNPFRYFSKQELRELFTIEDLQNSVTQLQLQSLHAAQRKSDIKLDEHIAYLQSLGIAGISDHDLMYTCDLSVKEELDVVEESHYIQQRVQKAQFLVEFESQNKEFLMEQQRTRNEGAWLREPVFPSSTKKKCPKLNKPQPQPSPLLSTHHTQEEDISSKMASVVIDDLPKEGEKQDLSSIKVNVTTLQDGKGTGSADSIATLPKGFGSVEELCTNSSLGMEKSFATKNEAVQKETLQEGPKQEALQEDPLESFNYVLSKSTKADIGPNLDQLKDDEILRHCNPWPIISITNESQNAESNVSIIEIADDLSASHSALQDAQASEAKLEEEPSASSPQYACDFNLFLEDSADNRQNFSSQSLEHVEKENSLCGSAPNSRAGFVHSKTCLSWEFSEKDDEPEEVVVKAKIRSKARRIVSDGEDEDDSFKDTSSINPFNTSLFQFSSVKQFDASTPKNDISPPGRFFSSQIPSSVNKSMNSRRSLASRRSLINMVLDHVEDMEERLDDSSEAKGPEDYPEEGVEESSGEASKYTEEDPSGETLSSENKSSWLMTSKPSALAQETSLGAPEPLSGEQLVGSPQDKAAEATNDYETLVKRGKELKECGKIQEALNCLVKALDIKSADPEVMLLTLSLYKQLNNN
Nature of the test: co-IP; 293T cells transfected with ERCC6L-DDK and KIF4A plasmids separately or jointly; IP lysis buffer; supernatant with protein A/G agarose beads and anti-DDK beads overnight at 4 °C; Western blotting.

B1: kinesin family member 4 (KIF4A) (protein, UniProt O95239 1-1232)
chain: MKEEVKGIPVRVALRCRPLVPKEISEGCQMCLSFVPGEPQVVVGTDKSFTYDFVFDPSTEQEEVFNTAVAPLIKGVFKGYNATVLAYGQTGSGKTYSMGGAYTAEQENEPTVGVIPRVIQLLFKEIDKKSDFEFTLKVSYLEIYNEEILDLLCPSREKAQINIREDPKEGIKIVGLTEKTVLVALDTVSCLEQGNNSRTVASTAMNSQSSRSHAIFTISLEQRKKSDKNSSFRSKLHLVDLAGSERQKKTKAEGDRLKEGININRGLLCLGNVISALGDDKKGGFVPYRDSKLTRLLQDSLGGNSHTLMIACVSPADSNLEETLNTLRYADRARKIKNKPIVNIDPQTAELNHLKQQVQQLQVLLLQAHGGTLPGSITVEPSENLQSLMEKNQSLVEENEKLSRGLSEAAGQTAQMLERIILTEQANEKMNAKLEELRQHAACKLDLQKLVETLEDQELKENVEIICNLQQLITQLSDETVACMAAAIDTAVEQEAQVETSPETSRSSDAFTTQHALRQAQMSKELVELNKALALKEALARKMTQNDSQLQPIQYQYQDNIKELELEVINLQKEKEELVLELQTAKKDANQAKLSERRRKRLQELEGQIADLKKKLNEQSKLLKLKESTERTVSKLNQEIRMMKNQRVQLMRQMKEDAEKFRQWKQKKDKEVIQLKERDRKRQYELLKLERNFQKQSNVLRRKTEEAAAANKRLKDALQKQREVADKRKETQSRGMEGTAARVKNWLGNEIEVMVSTEEAKRHLNDLLEDRKILAQDVAQLKEKKESGENPPPKLRRRTFSLTEVRGQVSESEDSITKQIESLETEMEFRSAQIADLQQKLLDAESEDRPKQRWENIATILEAKCALKYLIGELVSSKIQVSKLESSLKQSKTSCADMQKMLFEERNHFAEIETELQAELVRMEQQHQEKVLYLLSQLQQSQMAEKQLEESVSEKEQQLLSTLKCQDEELEKMREVCEQNQQLLRENEIIKQKLTLLQVASRQKHLPKDTLLSPDSSFEYVPPKPKPSRVKEKFLEQSMDIEDLKYCSEHSVNEHEDGDGDDDEGDDEEWKPTKLVKVSRKNIQGCSCKGWCGNKQCGCRKQKSDCGVDCCCDPTKCRNRQQGKDSLGTVERTQDSEGSFKLEDPTEVTPGLSFFNPVCATPNSKILKEMCDVEQVLSKKTPPAPSPFDLPELKHVATEYQENKAPGKKKKRALASNTSFFSGCSPIEEEAH
As to B1, the binding result was “binds”.
